Laboratory results reported in patent US4790988A, “Method and compositions for the treatment of thrombotic episodes” (University of Florida, priority 1987, dated 1988).
Not every detail of the peptide structures is certain; ends, links or a residue may be inferred. Peptide text beside a SMILES is read from it.

How the values were obtained:
coronary vascular bed = conditions: cited from earlier work
[1] = tested on: thrombus in the circumflex coronary artery; assay: Electrically induced coronary thrombus model in dogs, restoration of blood flow; format: in vivo, mongrel dogs
Procedure: A thrombus was introduced into the circumflex coronary artery of mongrel dogs by electrical current. Blood flow in the artery was measured by a commercially available electromagnetic flow probe. After stable blood flow for five minutes without electrical current, homogeneous recombinant human tissue plasminogen activator (Genentech) was infused into a peripheral vein for 30 minutes at a dose of 10 microgram/kg/min. In another cohort of animals, pentapeptide 6A was infused intra-arterially proximal to the occlusion at a dose of 5 micromoles/min for 20 min.

isolated blood vessels = conditions: cited from earlier work

C[C@H](N)C(=O)N[C@@H](CCCNC(=N)N)C(=O)N1CCC[C@H]1C(=O)N[C@@H](C)C(=O)N[C@@H](CCCCN)C(=O)O [Pentapeptide 6A, Ala-Arg-Pro-Ala-Lys] (H-ARPAK-OH)
canine coronary blood flow (coronary vascular bed; dose-related manner): increase
coronary vascular resistance (coronary vascular bed; dose-related manner): decrease
plasma concentrations of 6-ketoprostaglandin F1 alpha in coronary sinus blood samples (coronary vascular bed; in conjunction with the increase in coronary blood flow): increased
plasma 6-keto-PGF 1α in coronary sinus blood samples ([1]; infused intra-arterially at 5 micromoles/min for 20 min, indicates stimulation of prostacyclin release): marked increase
duration reflow persisted ([1]; infused intra-arterially at 5 micromoles/min for 20 min, reflow persisted only for the duration of the infusion): 16.3 ± 10.3 min
plasma canine tissue plasminogen activator by radioimmunoassay, coronary sinus vein blood ([1]; infused intra-arterially at 5 micromoles/min for 20 min, versus pretreatment dogs): increased
mean time to blood flow restoration ([1]; infused intra-arterially proximal to the occlusion at 5 micromoles/min for 20 min): 4.3 ± 2.9 min
animals with coronary blood flow restored ([1]; infused intra-arterially proximal to the occlusion at 5 micromoles/min for 20 min, animals with zero flow): 7 of 8
peak restored coronary blood flow ([1]; infused intra-arterially proximal to the occlusion at 5 micromoles/min for 20 min, dogs with zero flow): 20±4 mel/min
vasodilation in isolated blood vessels (isolated blood vessels): increase vasodilation
